Some results were stated once for a whole list of compounds, not compound by compound.
Test: Water sorption by dynamic vapor sorption (DVS)
Format: physicochemical
Conditions: after a full sorption-desorption cycle, baseline
Procedure: Dynamic vapor sorption (DVS) analysis of the powders was performed using an Automated Water Sorption Analyzer (Surface Measurement Systems, London, UK). Briefly, 5-10 mg of milled and unmilled TIG powder was used as the sample. The samples were allowed to equilibrate under nitrogen until dm/dt<0.002%. Water sorption was analyzed as 10 steps from 0% relative humidity (RH) to 100% RH where step dm/dt was set at 0.075% at 10% increments in RH.
The milled powder was stored for 30 days at 25° C./60% RH and 45° C./75% RH, as specified by the International Council for Harmonization (ICH) intermediate and accelerated stability conditions using sealed amber vials. At the 30-day and 6 month time point, the powder was characterized for its physicochemical properties, stability, and aerosol performance. The results obtained from day 30 and 6 months were compared to baseline measurements to declare storage stability.

CN(C)c1cc(NC(=O)CNC(C)(C)C)c(O)c2c1C[C@H]1C[C@H]3[C@H](N(C)C)C(O)=C(C(N)=O)C(=O)[C@@]3(O)C(O)=C1C2=O [Unmilled tigecycline, tigecycline]
water absorption: less than 2.5%
